This is an account of results in paper PMC12592336.

This experiment has as its target Rab11 (human (endogenous in HepG2)). Nature of the experiment: co-IP; anti-Rab11 antibody (control IgG beside it) on NP-40 lysates (50 mM Tris-HCl pH 8.0, 150 mM NaCl, 1% NP-40) of HepG2-NTCP CDC42-WT, CDC42-CA and CDC42-DN cells, 4 °C overnight; blots with anti-NTCP and anti-CDC42.

No constants are given. Whether binding was seen depends on the method and setting. Binding seen in cells or lysates may run through a third protein. Binding calls can cover weak binding; strength is not graded here.

B1: sodium taurocholate co-transporting polypeptide (NTCP) (receptor, UniProt Q14973 1-349)
chain: MEAHNASAPFNFTLPPNFGKRPTDLALSVILVFMLFFIMLSLGCTMEFSKIKAHLWKPKGLAIALVAQYGIMPLTAFVLGKVFRLKNIEALAILVCGCSPGGNLSNVFSLAMKGDMNLSIVMTTCSTFCALGMMPLLLYIYSRGIYDGDLKDKVPYKGIVISLVLVLIPCTIGIVLKSKRPQYMRYVIKGGMIIILLCSVAVTVLSAINVGKSIMFAMTPLLIATSSLMPFIGFLLGYVLSALFCLNGRCRRTVSMETGCQNVQLCSTILNVAFPPEVIGPLFFFPLLYMIFQLGEGLLLIAIFWCYEKFKTPKDKTKMIYTAATTEETIPGALGNGTYKGEDCSPCTA
For the molecule B1, the binding entry is “binds”.
